# From the supplement of paper PMC8728848
# The other results are listed elsewhere or left out.
# Assays:
# Experiment in all cases: glycan array binding signal (z-score within array); higher = stronger binding
# Details in all cases: glycan notation: IUPAC condensed, linker removed
# [1] = biological target: Neu5Ac(a2-3)Gal(b1-3)GlcNAc
# Outline: (§1)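 Negative Z-scores can be read as non-binding. The Z-score is calculated within each array and then averaged across arrays of one protein sequence at different concentrations or buffers and across linkers. Arrays, 3228 in all, were curated from the Consortium for Functional Glycomics database and kept only where the protein sequence was available.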
# [2] = biological target: Neu5Ac(a2-3)Gal(b1-3)GlcNAc(b1-2)Man
# Outline: as §1
# [3] = biological target: Neu5Ac(a2-3)Gal(b1-3)GlcNAc(b1-2)Man(a1-3)[GlcNAc(b1-4)][Neu5Ac(a2-3)Gal(b1-3)GlcNAc(b1-2)Man(a1-6)]Man(b1-4)GlcNAc(b1-4)GlcNAc
# Outline: as §1
# [4] = biological target: Neu5Ac(a2-3)Gal(b1-3)GlcNAc(b1-2)Man(a1-3)[Neu5Ac(a2-3)Gal(b1-3)GlcNAc(b1-2)Man(a1-6)]Man(b1-4)GlcNAc(b1-4)GlcNAc
# Outline: as §1
# [5] = biological target: Neu5Ac(a2-3)Gal(b1-3)GlcNAc(b1-2)[Neu5Ac(a2-3)Gal(b1-3)GlcNAc(b1-4)]Man(a1-6)[Neu5Ac(a2-3)Gal(b1-3)GlcNAc(b1-2)Man(a1-3)]Man(b1-4)GlcNAc(b1-4)GlcNAc
# Outline: as §1
# [6] = biological target: Neu5Ac(a2-3)Gal(b1-3)GlcNAc(b1-3)Gal(b1-3)GlcNAc
# Outline: as §1
# [7] = biological target: Neu5Ac(a2-3)Gal(b1-3)GlcNAc(b1-3)Gal(b1-4)GlcNAc
# Outline: as §1
# [8] = biological target: Neu5Ac(a2-3)Gal(b1-3)GlcNAc(b1-3)GalNAc
# Outline: as §1
# [9] = biological target: Neu5Ac(a2-3)Gal(b1-3)GlcNAc(b1-6)GalNAc
# Outline: as §1
# [10] = biological target: Neu5Ac(a2-3)Gal(b1-3)GlcNAc6S
# Outline: as §1
# [11] = biological target: Neu5Ac(a2-3)Gal(b1-3)[Fuc(a1-4)]GlcNAc
# Outline: as §1
# [12] = biological target: Neu5Ac(a2-3)Gal(b1-3)[Fuc(a1-4)]GlcNAc(b1-3)Gal(b1-3)[Fuc(a1-4)]GlcNAc
# Outline: as §1
# [13] = biological target: Neu5Ac(a2-3)Gal(b1-3)[Fuc(a1-4)]GlcNAc(b1-3)Gal(b1-4)[Fuc(a1-3)]GlcNAc
# Outline: as §1
# [14] = biological target: Neu5Ac(a2-3)Gal(b1-3)[GlcNAc(b1-6)]GalNAc
# Outline: as §1
# [15] = biological target: Neu5Ac(a2-3)Gal(b1-3)[Neu5Ac(a2-6)]GalNAc
# Outline: as §1
# [16] = biological target: Neu5Ac(a2-3)Gal(b1-3)[Neu5Ac(a2-6)]GlcNAc(b1-3)[Fuc(a1-3)[Gal(b1-4)]GlcNAc(b1-6)]Gal(b1-4)Glc
# Outline: as §1
# [17] = biological target: Neu5Ac(a2-3)Gal(b1-3)]Neu5Ac(a2-3)Gal(b1-4)]GlcNAc
# Outline: as §1
# Neu5Ac(a2-3)Gal(b1-4)Glc = biological target: Neu5Ac(a2-3)Gal(b1-4)Glc
# Outline: as §1
# [18] = biological target: Neu5Ac(a2-3)Gal(b1-4)GlcNAc
# Outline: as §1
# [19] = biological target: Neu5Ac(a2-3)Gal(b1-4)GlcNAc(b1-2)Man
# Outline: as §1
# [20] = biological target: Neu5Ac(a2-3)Gal(b1-4)GlcNAc(b1-2)Man(a1-3)[GlcNAc(b1-4)][Neu5Ac(a2-3)Gal(b1-4)GlcNAc(b1-2)Man(a1-6)]Man(b1-4)GlcNAc(b1-4)GlcNAc
# Outline: as §1
# [21] = biological target: Neu5Ac(a2-3)Gal(b1-4)GlcNAc(b1-2)Man(a1-3)[Neu5Ac(a2-3)Gal(b1-4)GlcNAc(b1-2)Man(a1-6)]Man(b1-4)GlcNAc(b1-4)GlcNAc
# Outline: as §1
# [22] = biological target: Neu5Ac(a2-3)Gal(b1-4)GlcNAc(b1-2)Man(a1-3)[Neu5Ac(a2-3)Gal(b1-4)GlcNAc(b1-2)Man(a1-6)]Man(b1-4)GlcNAc(b1-4)[Fuc(a1-6)]GlcNAc
# Outline: as §1
# [23] = biological target: Neu5Ac(a2-3)Gal(b1-4)GlcNAc(b1-2)Man(a1-3)[Neu5Ac(a2-6)Gal(b1-4)GlcNAc(b1-2)Man(a1-6)]Man(b1-4)GlcNAc(b1-4)GlcNAc
# Outline: as §1
# [24] = biological target: Neu5Ac(a2-3)Gal(b1-4)GlcNAc(b1-2)[Neu5Ac(a2-3)Gal(b1-4)GlcNAc(b1-4)]Man(a1-3)[GlcNAc(b1-4)][Neu5Ac(a2-3)Gal(b1-4)GlcNAc(b1-2)[Neu5Ac(a2-3)Gal(b1-4)GlcNAc(b1-6)]Man(a1-6)]Man(b1-4)GlcNAc(b1-4)GlcNAc
# Outline: as §1
# [25] = biological target: Neu5Ac(a2-3)Gal(b1-4)GlcNAc(b1-2)[Neu5Ac(a2-3)Gal(b1-4)GlcNAc(b1-4)]Man(a1-3)[GlcNAc(b1-4)][Neu5Ac(a2-3)Gal(b1-4)GlcNAc(b1-4)Man(a1-6)]Man(b1-4)GlcNAc(b1-4)GlcNAc
# Outline: as §1
# [26] = biological target: Neu5Ac(a2-3)Gal(b1-4)GlcNAc(b1-2)[Neu5Ac(a2-3)Gal(b1-4)GlcNAc(b1-6)]Man(a1-6)[Neu5Ac(a2-3)Gal(b1-4)GlcNAc(b1-2)Man(a1-3)][GlcNAc(b1-4)]Man(b1-4)GlcNAc(b1-4)GlcNAc
# Outline: as §1
# [27] = biological target: Neu5Ac(a2-3)Gal(b1-4)GlcNAc(b1-3)Gal
# Outline: as §1
# [28] = biological target: Neu5Ac(a2-3)Gal(b1-4)GlcNAc(b1-3)Gal(b1-3)GlcNAc
# Outline: as §1
# [29] = biological target: Neu5Ac(a2-3)Gal(b1-4)GlcNAc(b1-3)Gal(b1-4)GlcNAc
# Outline: as §1
# [30] = biological target: Neu5Ac(a2-3)Gal(b1-4)GlcNAc(b1-3)Gal(b1-4)GlcNAc(b1-2)Man(a1-3)[Neu5Ac(a2-3)Gal(b1-4)GlcNAc(b1-3)Gal(b1-4)GlcNAc(b1-2)Man(a1-6)]Man(b1-4)GlcNAc(b1-4)GlcNAc
# Outline: as §1
# [31] = biological target: Neu5Ac(a2-3)Gal(b1-4)GlcNAc(b1-3)Gal(b1-4)GlcNAc(b1-3)Gal(b1-4)GlcNAc
# Outline: as §1
# [32] = biological target: Neu5Ac(a2-3)Gal(b1-4)GlcNAc(b1-3)Gal(b1-4)GlcNAc(b1-3)Gal(b1-4)GlcNAc(b1-2)Man(a1-3)[Neu5Ac(a2-3)Gal(b1-4)GlcNAc(b1-3)Gal(b1-4)GlcNAc(b1-3)Gal(b1-4)GlcNAc(b1-2)Man(a1-6)]GalNAc
# Outline: as §1
# [33] = biological target: Neu5Ac(a2-3)Gal(b1-4)GlcNAc(b1-3)Gal(b1-4)GlcNAc(b1-3)GalNAc
# Outline: as §1
# [34] = biological target: Neu5Ac(a2-3)Gal(b1-4)GlcNAc(b1-3)Gal(b1-4)GlcNAc(b1-3)[Neu5Ac(a2-3)Gal(b1-4)GlcNAc(b1-3)Gal(b1-4)GlcNAc(b1-6)]GalNAc
# Outline: as §1
# [35] = biological target: Neu5Ac(a2-3)Gal(b1-4)GlcNAc(b1-3)Gal(b1-4)GlcNAc(b1-6)[Gal(b1-3)]GalNAc
# Outline: as §1
# [36] = biological target: Neu5Ac(a2-3)Gal(b1-4)GlcNAc(b1-3)Gal(b1-4)[Fuc(a1-3)]GlcNAc
# Outline: as §1
# [37] = biological target: Neu5Ac(a2-3)Gal(b1-4)GlcNAc(b1-3)GalNAc
# Outline: as §1
binder,measurement,setting,value
"HA-61200 (Pseudomonas aeruginosa), Q02SP8_PSEAB (protein) MNKCYALVWNVSQGCWNVVSEGSRRRGKPAGAKAAIASVLALLGATALAPAYALPSGGTVVGGSANGEIHLSGGNSLSVNQKVDKLIANWDSFSVAAGERVIFNQPSSSSIALNRVIGTKASDIQGRIDANGQVFLVNPNGVLFGRGAQVNVGGLVASTLDITDAEFNGNSSRYRFTGPSTNGVLNHGGAITAAEGGSIALLGAQVDNRGTVLAQMGGVGLGAGSDLTLNFDGNKLLDIRVDAGVANALASNGGLLKADGGRVLMAARTANALLNTVVNSQGAIEARSLRGKNGRIVLDG",glycan array binding signal (z-score),[1],0.042
same,glycan array binding signal (z-score),[2],-0.191
same,glycan array binding signal (z-score),[3],-0.143
same,glycan array binding signal (z-score),[4],0.145
same,glycan array binding signal (z-score),[5],0.786
same,glycan array binding signal (z-score),[6],-0.404
same,glycan array binding signal (z-score),[7],-0.144
same,glycan array binding signal (z-score),[8],0.333
same,glycan array binding signal (z-score),[9],0.347
same,glycan array binding signal (z-score),[10],-0.444
same,glycan array binding signal (z-score),[11],-0.695
same,glycan array binding signal (z-score),[12],0.278
same,glycan array binding signal (z-score),[13],-0.831
same,glycan array binding signal (z-score),[14],0.057
same,glycan array binding signal (z-score),[15],-0.092
same,glycan array binding signal (z-score),[16],0.927
same,glycan array binding signal (z-score),[17],-0.247
same,glycan array binding signal (z-score),Neu5Ac(a2-3)Gal(b1-4)Glc,0.217
same,glycan array binding signal (z-score),[18],-0.476
same,glycan array binding signal (z-score),[19],-0.247
same,glycan array binding signal (z-score),[20],-0.29
same,glycan array binding signal (z-score),[21],-0.003
same,glycan array binding signal (z-score),[22],0.873
same,glycan array binding signal (z-score),[23],-0.276
same,glycan array binding signal (z-score),[24],0.298
same,glycan array binding signal (z-score),[25],-0.405
same,glycan array binding signal (z-score),[26],-0.137
same,glycan array binding signal (z-score),[27],-0.852
same,glycan array binding signal (z-score),[28],-0.215
same,glycan array binding signal (z-score),[29],0.479
same,glycan array binding signal (z-score),[30],-1.17
same,glycan array binding signal (z-score),[31],-0.357
same,glycan array binding signal (z-score),[32],3.75
same,glycan array binding signal (z-score),[33],-0.734
same,glycan array binding signal (z-score),[34],0.774
same,glycan array binding signal (z-score),[35],-0.672
same,glycan array binding signal (z-score),[36],-0.558
same,glycan array binding signal (z-score),[37],-0.944

# Reformatted: results already given.
binder	measurement	setting	value
HA-61200 (Pseudomonas aeruginosa), Q02SP8_PSEAB (protein) MNKCYALVWNVSQGCWNVVSEGSRRRGKPAGAKAAIASVLALLGATALAPAYALPSGGTVVGGSANGEIHLSGGNSLSVNQKVDKLIANWDSFSVAAGERVIFNQPSSSSIALNRVIGTKASDIQGRIDANGQVFLVNPNGVLFGRGAQVNVGGLVASTLDITDAEFNGNSSRYRFTGPSTNGVLNHGGAITAAEGGSIALLGAQVDNRGTVLAQMGGVGLGAGSDLTLNFDGNKLLDIRVDAGVANALASNGGLLKADGGRVLMAARTANALLNTVVNSQGAIEARSLRGKNGRIVLDG	glycan array binding signal (z-score)	[27]	-0.852
same	glycan array binding signal (z-score)	[28]	-0.215
same	glycan array binding signal (z-score)	[29]	0.479
